Reference: PubChem BioAssay AID330 (DTP/NCI, 2004)
The list is a part of this screen's results and no random one: it is rich in T/C values a quarter to a half above the control, in often repeated tests (any T/C) and in doses without a T/C. Other doses and runs of a compound stand elsewhere. T/C: endpoint of the treated group in % of that of the vehicle group. Some doses have a count of surviving animals in place of a T/C: the source holds a T/C of zero for them, seemingly a mark for toxic or unscored doses. Some survivor counts are full or nearly so, which does not show that the dose was tolerated: the source hardly ever lists a survival T/C far under the control, and the zero likely stands for such cases as well. Survivors were counted at the toxicity check, usually on the fifth day, unless a day is given; later deaths do not show. Schedules are NCI's codes, read here as Q, the interval in days (D) or hours (H), X, the number of doses. Some doses were run more than once; the values are given in rising order. Some molecules as drawn cover several salts, stereoisomers or complexes of the source; a dose is that of the sample tested. Where survival is the endpoint, this PubChem deposit counts one and a half times the control or more as active, and values a quarter to a half above the control carry no call in these data; other NCI protocols may use other cut-offs.

Test system: P388 leukemia ip, CD2F1 mice, survival T/C
Assay: NCI In Vivo Anticancer Drug Screen. Data for tumor model P388 Leukemia (intraperitoneal) in CD2F1 (CDF1) mice
Settings: T/C endpoint: median survival time, higher T/C = longer survival
[1] = dose: 200.0 mg/kg/injection, schedule: Q01DX009 (ip), vehicle: saline with Tween-80
[2] = dose: 200.0 mg/kg/injection, schedule: Q01DX005 (ip), vehicle: Klucel (hydroxypropylcellulose) (HPC)
[3] = dose: 200.0 mg/kg/injection, schedule: Q01DX009 (ip), vehicle: saline
[4] = dose: 400.0 mg/kg/injection, schedule: Q04DX003 (ip), vehicle: saline
[5] = dose: 200.0 mg/kg/injection, schedule: Q01DX009 (ip), vehicle: Klucel (hydroxypropylcellulose) (HPC)
[6] = dose: 400.0 mg/kg/injection, schedule: Q04DX003 (ip), vehicle: Klucel (hydroxypropylcellulose) (HPC)
[7] = dose: 100.0 mg/kg/injection, schedule: Q01DX005 (ip), vehicle: Klucel (hydroxypropylcellulose) (HPC)
[8] = dose: 200.0 mg/kg/injection, schedule: Q01DX005 (ip), vehicle: saline with Tween-80
[9] = dose: 240.0 mg/kg/injection, schedule: Q01DX005 (ip), vehicle: saline

COc1cc2c(cc1OC)[C@H]1C(=O)c3cc4c(cc3[C@H]1N(C)C2=O)OCO4
survivor count (dose: 100.0 mg/kg/injection, schedule: Q01DX005 (ip), vehicle: distilled water + Tween-80): 5 of 5 | survivor count (dose: 200.0 mg/kg/injection, schedule: Q01DX005 (ip), vehicle: distilled water + Tween-80): 5 of 5

Cc1cc2nc3c(=O)[nH]c(=O)nc-3n(CC(O)C(O)C(O)CO)c2cc1C (centres undefined)
survivor count [1]: 4 of 6 and 6 of 6

CC1(C)CSCC(C)(C)C2(C=CC=CC=N2)C1=O (centres undefined)
survivor count [2]: 4 of 5

CCCCCCCCCCCCCCC[N+]1([O-])CCOCC1
survivor count [3]: 0 of 6

Nc1ccc2ccc(N)nc2c1
survivor count (dose: 100.0 mg/kg/injection, schedule: Q01DX009 (ip), vehicle: acid diluted with saline): 3 of 6 | survivor count (dose: 200.0 mg/kg/injection, schedule: Q01DX009 (ip), vehicle: acid diluted with saline): 0 of 6

CC(=O)N1CCCC2=C1CCC2
survivor count (dose: 200.0 mg/kg/injection, schedule: Q04DX003 (ip), vehicle: saline): 2 of 6 | survivor count [4]: 0 of 6

N#Cc1cnc(N)c(C#N)c1
survivor count (dose: 100.0 mg/kg/injection, schedule: Q01DX009 (ip), vehicle: Klucel (hydroxypropylcellulose) (HPC)): 0 of 6 | survivor count [5]: 0 of 6

N=C(N)c1nn[nH]n1
survivor count [6]: 1 of 6

CC(=O)C(=N/O)/C(C)=N/NC(=O)CC#N
survivor count (dose: 400.0 mg/kg/injection, schedule: Q04DX009 (ip), vehicle: saline): 6 of 6

CC1(C)[S][Sn]2[NH]C1C(=O)[O]2 (centres undefined)
survivor count [2]: 3 of 6

CC1=C2CC/C(C)=C/CCC3(C)OC3CC/C(C)=C/C2OC1=O (centres undefined)
survivor count (dose: 8.0 mg/kg/injection, schedule: Q01DX009 (ip), vehicle: Klucel (hydroxypropylcellulose) (HPC)): 6 of 6

CC1(C)CCC2=C1CC[C@H]1[C@H]2CCC2=CC(=O)CC[C@@]21C
survivor count (dose: 400.0 mg/kg/injection, schedule: Q01DX009 (ip), vehicle: saline with Tween-80): 6 of 6

COc1ccc2ncc(COC(=O)NC3CCCCC3)c(COC(=O)NC3CCCCC3)c2c1
survivor count [7]: 6 of 6 | survivor count [2]: 6 of 6

Cc1cc(C)c2c(n1)sc1c(=O)n(N)c(C)nc12
survivor count (dose: 60.0 mg/kg/injection, schedule: Q01DX005 (ip), vehicle: saline with Tween-80): 6 of 6 | survivor count (dose: 120.0 mg/kg/injection, schedule: Q01DX005 (ip), vehicle: saline with Tween-80): 5 of 6 and 6 of 6

Cc1cc(NC(=S)SCc2ccc(F)cc2)ccc1Br
T/C (dose: 200.0 mg/kg/injection, schedule: Q01DX009 (ip), vehicle: Klucel (hydroxypropylcellulose) (HPC), evaluated on day 20): 125 % of control | T/C (dose: 200.0 mg/kg/injection, schedule: Q01DX009 (ip), vehicle: Klucel (hydroxypropylcellulose) (HPC), evaluated on day 30): 131 % of control | survivor count (dose: 400.0 mg/kg/injection, schedule: Q01DX009 (ip), vehicle: Klucel (hydroxypropylcellulose) (HPC)): 3 of 6

O=C1CN(CCN2CCCCC2)CC(=O)N2CCCCN12
survivor count [8]: 2 of 5

COc1cc([N+](=O)[O-])c(OC)cc1Nc1ccccc1C(=O)O
survivor count (dose: 240.0 mg/kg/injection, schedule: Q01DX005 (ip), vehicle: Klucel + Tween-80): 3 of 6

COC(/C=N/O)c1ccccc1 (centres undefined)
survivor count (dose: 25.0 mg/kg/injection, schedule: Q04DX003 (ip), vehicle: saline with Tween-80): 6 of 6 | survivor count (dose: 200.0 mg/kg/injection, schedule: Q04DX003 (ip), vehicle: saline with Tween-80): 5 of 6 and 6 of 6 | survivor count (dose: 400.0 mg/kg/injection, schedule: Q04DX003 (ip), vehicle: saline with Tween-80): 3 of 6 | survivor count [4]: 1 of 6

COc1cc2c3c(c1OC)C(=O)C[C@@H]1CCCN(CC2)[C@H]31
survivor count (dose: 50.0 mg/kg/injection, schedule: Q01DX005 (ip), vehicle: Klucel (hydroxypropylcellulose) (HPC)): 0 of 6 | survivor count [7]: 0 of 6 | survivor count [2]: 0 of 6

O=P(c1ccccc1)(c1ccccc1)c1ccccc1.O=P(c1ccccc1)(c1ccccc1)c1ccccc1.O=S(=O)(O)O.[Fe]
survivor count [6]: 1 of 6

CN=C(NC)c1ccc(NC(=O)c2cc(C)cc(C(=O)Nc3ccc(C(=NC)NC)cc3)c2)cc1
survivor count (dose: 50.0 mg/kg/injection, schedule: Q01DX005 (ip), vehicle: saline with Tween-80): 0 of 6 | survivor count (dose: 100.0 mg/kg/injection, schedule: Q01DX005 (ip), vehicle: saline with Tween-80): 0 of 6 | survivor count [8]: 0 of 6

CCCCCCCCC(O)C#CC(N)=O (centres undefined)
survivor count (dose: 400.0 mg/kg/injection, schedule: Q01DX001 (ip), vehicle: saline with Tween-80): 0 of 6

COc1cc2c(c(OC)c1OC)-c1ccc(OC)c(=O)cc1CC=C2
T/C (dose: 5.0 mg/kg/injection, schedule: Q01DX009 (ip), vehicle: Klucel (hydroxypropylcellulose) (HPC)): 136 % of control | survivor count (dose: 10.0 mg/kg/injection, schedule: Q01DX009 (ip), vehicle: Klucel (hydroxypropylcellulose) (HPC)): 6 of 6 | survivor count (dose: 20.0 mg/kg/injection, schedule: Q01DX009 (ip), vehicle: Klucel (hydroxypropylcellulose) (HPC)): 4 of 6 and 6 of 6 | survivor count (dose: 40.0 mg/kg/injection, schedule: Q01DX009 (ip), vehicle: Klucel (hydroxypropylcellulose) (HPC)): 5 of 6

Clc1ccc(C2C3CCN2CC3)cc1 (centres undefined)
survivor count (dose: 50.0 mg/kg/injection, schedule: Q01DX009 (ip), vehicle: saline): 0 of 6 | survivor count (dose: 100.0 mg/kg/injection, schedule: Q01DX009 (ip), vehicle: saline): 0 of 6 | survivor count [3]: 0 of 6

CCCCCCCCCCCCO[P+](=O)OCCCCCCCCCCCC
T/C (dose: 200.0 mg/kg/injection, schedule: Q01DX009 (ip), vehicle: saline sonified): 125 % of control

Nc1ncnc2c1cnn2CCCl
survivor count (dose: 50.0 mg/kg/injection, schedule: Q01DX009 (ip), vehicle: saline with Tween-80): 6 of 6 | survivor count (dose: 100.0 mg/kg/injection, schedule: Q01DX009 (ip), vehicle: saline with Tween-80): 6 of 6 | survivor count [1]: 0 of 6

OC1CC2CCCCC2CC1c1ccccc1 (centres undefined)
T/C (dose: 100.0 mg/kg/injection, schedule: Q04DX002 (ip), vehicle: saline with Tween-80): 138 % of control | T/C (dose: 200.0 mg/kg/injection, schedule: Q04DX002 (ip), vehicle: saline with Tween-80): 136 % of control

CC(=O)/C(=C\c1ccco1)C(=O)CCN(C)C
T/C [9]: 127 % of control | survivor count (dose: 480.0 mg/kg/injection, schedule: Q01DX005 (ip), vehicle: saline): 1 of 6

O=[N+]([O-])c1ccc(N2CCN(CCO)CC2)c2c1no[n+]2[O-]
survivor count (dose: 7.5 mg/kg/injection, schedule: Q01DX009 (ip), vehicle: saline): 6 of 6 | survivor count (dose: 100.0 mg/kg/injection, schedule: Q01DX009 (ip), vehicle: suspension in saline): 5 of 6 | survivor count (dose: 200.0 mg/kg/injection, schedule: Q01DX009 (ip), vehicle: suspension in saline): 0 of 6

CC1NNC(=O)C1(Br)Br (centres undefined)
survivor count (dose: 25.0 mg/kg/injection, schedule: Q01DX009 (ip), vehicle: gum acacia): 0 of 6

CC(Cc1ccccc1)NC(=O)C1CC2CCCCN2C1C (centres undefined)
survivor count (dose: 240.0 mg/kg/injection, schedule: Q01DX005 (ip), vehicle: saline with Tween-80): 0 of 6

Oc1ccc(Cl)cc1C1c2ccccc2Oc2ccccc21
survivor count [5]: 6 of 6

COc1c2ccccc2c(OC)c2c(OC(C)=O)c3c(c(OC(C)=O)c12)CC=CC3
survivor count (dose: 12.5 mg/kg/injection, schedule: Q01DX009 (ip), vehicle: other): 3 of 3

N=C(N)Sc1cc(O)c(O)c2ccccc12
survivor count (dose: 25.0 mg/kg/injection, schedule: Q01DX005 (ip), vehicle: saline): 3 of 6 | survivor count (dose: 50.0 mg/kg/injection, schedule: Q01DX005 (ip), vehicle: saline): 0 of 6 | survivor count (dose: 100.0 mg/kg/injection, schedule: Q01DX005 (ip), vehicle: saline): 0 of 6 | survivor count (dose: 200.0 mg/kg/injection, schedule: Q01DX005 (ip), vehicle: saline): 0 of 6

O=C(OCCO)c1c(Cl)c(Cl)c(Cl)c(Cl)c1-c1c2cc(Br)c(=O)c(Br)c-2oc2c(Br)c(O)c(Br)cc12
survivor count [9]: 3 of 6
